Experimental data as given in the supplement of paper PMC10077471.
The full ranking holds about 1,900 compounds; the median of “excess over highest single agent (ExcessHSA) synergy score, 6x6 matrix” is about -83, and the lowest 2% start at about -370. The list shows a part of the results.

Test system: NCI-H446
Assay: excess over highest single agent (ExcessHSA) synergy score, 6x6 matrix; higher = less synergy (more negative = stronger synergy)
Conditions: 72 h; CellTiter-Glo viability

In order of falling “excess over highest single agent” value:
1. CN1C(C(=O)Nc2ccccn2)=C(O)c2sc(Cl)cc2S1(=O)=O + Cc1sc2c(c1C)C(c1ccc(Cl)cc1)=N[C@@H](CC(=O)OC(C)(C)C)c1nnc(C)n1-2 [NCGC00250412-19]  395
2. CCC[C@@H]1C[C@@H](C(=O)N[C@@H]([C@H]2O[C@H](SC)[C@H](O)[C@@H](O)[C@H]2O)[C@@H](C)O)N(C)C1 + Cc1sc2c(c1C)C(c1ccc(Cl)cc1)=N[C@@H](CC(=O)OC(C)(C)C)c1nnc(C)n1-2 [NCGC00250412-19]  70
3. O=C(Nc1ncc(SCCN2CCCC2)s1)[C@]1(c2ccc(S(=O)(=O)C3CC3)cc2)C[C@H]1C1CCCCC1 + Cc1sc2c(c1C)C(c1ccc(Cl)cc1)=N[C@@H](CC(=O)OC(C)(C)C)c1nnc(C)n1-2 [NCGC00250412-19]  69.3
4. O=C(Nc1cccnc1)N1CCC(Cc2cccc(Oc3ccc(C(F)(F)F)cn3)c2)CC1 + Cc1sc2c(c1C)C(c1ccc(Cl)cc1)=N[C@@H](CC(=O)OC(C)(C)C)c1nnc(C)n1-2 [NCGC00250412-19]  57.2
5. CCCCc1oc2ccccc2c1C(=O)c1cc(I)c(OCCN(CC)CC)c(I)c1 + Cc1sc2c(c1C)C(c1ccc(Cl)cc1)=N[C@@H](CC(=O)OC(C)(C)C)c1nnc(C)n1-2 [NCGC00250412-19]  17.5
6. S=c1nc[nH]c2nc[nH]c12 + Cc1sc2c(c1C)C(c1ccc(Cl)cc1)=N[C@@H](CC(=O)OC(C)(C)C)c1nnc(C)n1-2 [NCGC00250412-19]  15.6
7. CC12CC3CC(C)(C1)CC(N)(C3)C2 + Cc1sc2c(c1C)C(c1ccc(Cl)cc1)=N[C@@H](CC(=O)OC(C)(C)C)c1nnc(C)n1-2 [NCGC00250412-19]  -0.949
8. Cc1ccc(C(=O)Nc2cccc(C(F)(F)F)c2)cc1Nc1nc(-c2cccnc2)nc2c1cnn2C + Cc1sc2c(c1C)C(c1ccc(Cl)cc1)=N[C@@H](CC(=O)OC(C)(C)C)c1nnc(C)n1-2 [NCGC00250412-19]  -0.966
9. CN1CCCN=C1/C=C/c1cccs1 + Cc1sc2c(c1C)C(c1ccc(Cl)cc1)=N[C@@H](CC(=O)OC(C)(C)C)c1nnc(C)n1-2 [NCGC00250412-19]  -4.75
10. NCc1c[nH]c(=S)n1[C@H]1CCc2c(F)cc(F)cc2C1 + Cc1sc2c(c1C)C(c1ccc(Cl)cc1)=N[C@@H](CC(=O)OC(C)(C)C)c1nnc(C)n1-2 [NCGC00250412-19]  -24.9
11. CCC(=O)OCC(=O)[C@@]1(OC(=O)CC)[C@@H](C)C[C@H]2[C@@H]3CCC4=CC(=O)C=C[C@]4(C)[C@@]3(F)[C@@H](O)C[C@@]21C + Cc1sc2c(c1C)C(c1ccc(Cl)cc1)=N[C@@H](CC(=O)OC(C)(C)C)c1nnc(C)n1-2 [NCGC00250412-19]  -26.9
12. O=C(O)c1cccnc1 + Cc1sc2c(c1C)C(c1ccc(Cl)cc1)=N[C@@H](CC(=O)OC(C)(C)C)c1nnc(C)n1-2 [NCGC00250412-19]  -46.3
13. O=C(C=Cc1ccc(C=CC(=O)Nc2ccc(C3=NCCN3)cc2)cc1)Nc1ccc(C2=NCCN2)cc1 + Cc1sc2c(c1C)C(c1ccc(Cl)cc1)=N[C@@H](CC(=O)OC(C)(C)C)c1nnc(C)n1-2 [NCGC00250412-19]  -46.7
14. Cn1cc(C2=C(c3cn(C4CCN(Cc5ccccn5)CC4)c4ccccc34)C(=O)NC2=O)c2ccccc21 + Cc1sc2c(c1C)C(c1ccc(Cl)cc1)=N[C@@H](CC(=O)OC(C)(C)C)c1nnc(C)n1-2 [NCGC00250412-19]  -58.1
15. COc1ccc(-c2ccc3cc(C(=O)O)ccc3c2)cc1C12CC3CC(CC(C3)C1)C2 + Cc1sc2c(c1C)C(c1ccc(Cl)cc1)=N[C@@H](CC(=O)OC(C)(C)C)c1nnc(C)n1-2 [NCGC00250412-19]  -59
16. Cc1noc(-c2ccc(CSCCC(=O)O)cc2)c1NC(=O)OC(C)c1ccccc1Cl (stereo unspecified) + Cc1sc2c(c1C)C(c1ccc(Cl)cc1)=N[C@@H](CC(=O)OC(C)(C)C)c1nnc(C)n1-2 [NCGC00250412-19]  -62
17. NC(=O)c1cccnc1 + Cc1sc2c(c1C)C(c1ccc(Cl)cc1)=N[C@@H](CC(=O)OC(C)(C)C)c1nnc(C)n1-2 [NCGC00250412-19]  -63.3
18. Cn1c(=O)c2c(ncn2CC(O)CO)n(C)c1=O (stereo unspecified) + Cc1sc2c(c1C)C(c1ccc(Cl)cc1)=N[C@@H](CC(=O)OC(C)(C)C)c1nnc(C)n1-2 [NCGC00250412-19]  -73.2
19. NNC(=O)c1ccncc1 + Cc1sc2c(c1C)C(c1ccc(Cl)cc1)=N[C@@H](CC(=O)OC(C)(C)C)c1nnc(C)n1-2 [NCGC00250412-19]  -86.7
20. C[C@@H]1CC[C@@]2(OC1)O[C@H]1C[C@H]3[C@@H]4CC=C5C[C@@H](O[C@@H]6O[C@H](CO)[C@@H](O[C@@H]7O[C@@H](C)[C@H](O)[C@@H](O)[C@H]7O)[C@H](O)[C@H]6O[C@@H]6O[C@@H](C)[C@H](O)[C@@H](O)[C@H]6O)CC[C@]5(C)[C@H]4CC[C@]3(C)[C@H]1[C@@H]2C + Cc1sc2c(c1C)C(c1ccc(Cl)cc1)=N[C@@H](CC(=O)OC(C)(C)C)c1nnc(C)n1-2 [NCGC00250412-19]  -88.7
21. CC(C)c1onc(-c2c(Cl)cccc2Cl)c1COc1ccc(/C=C/c2cccc(C(=O)O)c2)c(Cl)c1 + Cc1sc2c(c1C)C(c1ccc(Cl)cc1)=N[C@@H](CC(=O)OC(C)(C)C)c1nnc(C)n1-2 [NCGC00250412-19]  -97.7
22. Cc1cccc(N(C)C(=S)Oc2ccc3ccccc3c2)c1 + Cc1sc2c(c1C)C(c1ccc(Cl)cc1)=N[C@@H](CC(=O)OC(C)(C)C)c1nnc(C)n1-2 [NCGC00250412-19]  -107
23. CN1CCN(c2ccc3nc(-c4c(N)c5c(F)cccc5[nH]c4=O)[nH]c3c2)CC1 + Cc1sc2c(c1C)C(c1ccc(Cl)cc1)=N[C@@H](CC(=O)OC(C)(C)C)c1nnc(C)n1-2 [NCGC00250412-19]  -118
24. O=C(Nc1ccc([N+](=O)[O-])cc1Cl)c1cc(Cl)ccc1O + Cc1sc2c(c1C)C(c1ccc(Cl)cc1)=N[C@@H](CC(=O)OC(C)(C)C)c1nnc(C)n1-2 [NCGC00250412-19]  -126
25. CC1(N2CCC(n3c([C@@H]4CCCNC4)nc4ccccc43)CC2)CCCCCCC1 + Cc1sc2c(c1C)C(c1ccc(Cl)cc1)=N[C@@H](CC(=O)OC(C)(C)C)c1nnc(C)n1-2 [NCGC00250412-19]  -141
26. CC(=O)N(C)C1(c2ccccc2)CCN(CCC[C@]2(c3ccc(Cl)c(Cl)c3)CCCN(C(=O)c3ccccc3)C2)CC1 + Cc1sc2c(c1C)C(c1ccc(Cl)cc1)=N[C@@H](CC(=O)OC(C)(C)C)c1nnc(C)n1-2 [NCGC00250412-19]  -142
27. COc1cc(O)c2c(c1)[C@H]1O[C@@H]1C[C@H](O)[C@H](O)C(=O)/C=C\C[C@H](C)OC2=O + Cc1sc2c(c1C)C(c1ccc(Cl)cc1)=N[C@@H](CC(=O)OC(C)(C)C)c1nnc(C)n1-2 [NCGC00250412-19]  -154
28. O=c1[nH]c(=O)n([C@H]2C[C@H](O)[C@@H](CO)O2)cc1I + Cc1sc2c(c1C)C(c1ccc(Cl)cc1)=N[C@@H](CC(=O)OC(C)(C)C)c1nnc(C)n1-2 [NCGC00250412-19]  -172
29. Cc1ccc(S(=O)(=O)OCC(=O)Nc2ccc(C(=O)O)c(O)c2)cc1 + Cc1sc2c(c1C)C(c1ccc(Cl)cc1)=N[C@@H](CC(=O)OC(C)(C)C)c1nnc(C)n1-2 [NCGC00250412-19]  -180
30. C=CCNC1=C2C[C@@H](C)C[C@H](OC)[C@H](O)[C@@H](C)/C=C(\C)[C@H](OC(N)=O)[C@@H](OC)/C=C\C=C(/C)C(=O)NC(=CC1=O)C2=O + Cc1sc2c(c1C)C(c1ccc(Cl)cc1)=N[C@@H](CC(=O)OC(C)(C)C)c1nnc(C)n1-2 [NCGC00250412-19]  -199
31. OCc1ccc(-c2nn(Cc3ccccc3)c3ccccc23)o1 + Cc1sc2c(c1C)C(c1ccc(Cl)cc1)=N[C@@H](CC(=O)OC(C)(C)C)c1nnc(C)n1-2 [NCGC00250412-19]  -215
32. CCOC(=O)N1c2ccc(C(F)(F)F)cc2[C@@H](N(Cc2cc(C(F)(F)F)cc(C(F)(F)F)c2)C(=O)OC)C[C@H]1CC + Cc1sc2c(c1C)C(c1ccc(Cl)cc1)=N[C@@H](CC(=O)OC(C)(C)C)c1nnc(C)n1-2 [NCGC00250412-19]  -232
33. Cc1c(Cn2c(C)nc3c(C(=O)O)cc(N4CCOCC4)cc32)cccc1C(F)(F)F + Cc1sc2c(c1C)C(c1ccc(Cl)cc1)=N[C@@H](CC(=O)OC(C)(C)C)c1nnc(C)n1-2 [NCGC00250412-19]  -233
34. CC(C)(O)c1cc2nc(-c3cnc(N)nc3)nc(N3CCOCC3)c2s1 + Cc1sc2c(c1C)C(c1ccc(Cl)cc1)=N[C@@H](CC(=O)OC(C)(C)C)c1nnc(C)n1-2 [NCGC00250412-19]  -253
35. C[C@H]1C[C@H]2[C@@H]3CCC4=CC(=O)C=C[C@]4(C)[C@H]3C(=O)C[C@]2(C)[C@@]1(O)C(=O)CO + Cc1sc2c(c1C)C(c1ccc(Cl)cc1)=N[C@@H](CC(=O)OC(C)(C)C)c1nnc(C)n1-2 [NCGC00250412-19]  -318
36. CO[C@H]1C[C@@H]2CC[C@@H](C)[C@@](O)(O2)C(=O)C(=O)N2CCCC[C@H]2C(=O)O[C@H]([C@H](C)C[C@@H]2CC[C@@H](OC(=O)C(C)(CO)CO)[C@H](OC)C2)CC(=O)[C@H](C)/C=C(\C)[C@@H](O)[C@@H](OC)C(=O)[C@H](C)C[C@H](C)/C=C/C=C/C=C/1C + Cc1sc2c(c1C)C(c1ccc(Cl)cc1)=N[C@@H](CC(=O)OC(C)(C)C)c1nnc(C)n1-2 [NCGC00250412-19]  -419
